Data reported in patent US10857167B2, “Use of oligosaccharide compositions to enhance weight gain” (Children's Hospital Medical Center, priority 2015, dated 2020).
This continues a long series; more values of the same kind are listed elsewhere.

System: distal small bowel gene expression
Test: RNA sequencing / transcriptional analysis of small bowel 56 days after ICR (2′-FL signature response)
Type: in vivo, mouse
Description: Luminal small bowel contents were expressed into AllProtect Tissue Reagent (Qiagen Inc, CA). Bacterial DNA was extracted using the AllPrep DNA/RNA Mini Kit (Qiagen Inc, CA), according to kit instructions and prior to sequencing (described below). Small bowel tissue samples for RNA were placed into RNA Later (Life Technologies, NY). RNA extraction was accomplished following Qiagen RNeasy Plus Kit instruction (Qiagen Inc, CA). All nucleic acid samples were then stored at -80 Celsius until sequenced (described below). Transcriptional analysis was carried out on resected and harvested small bowel samples obtained from operated mice taken to 8 weeks. Murine RNA sequencing libraries were prepared from approximately 1.5 μg RNA using the TruSeq RNA Sample Preparation Kit (Illumina, Calif.) and sequenced using the HiSeq 2000 Sequencing System (Illumina, Calif.) with single-end 50 bp reads. Following removal of primers and barcodes, sequences were aligned to the mm10 genome using reference annotations from UCSC (Rosenbloom et al. (2015) Nucleic acids research 43: […]-681) (n=36,186 entities). Aligned reads were quantified and used to compute reads per kilobase per million mapped reads (RPKM); raw counts were then normalized using the DESeq algorithm and each harvested sample was baselined to its own resected sample. A filter was applied to the data, requiring at least three reads in all samples of at least one of the four experimental conditions (n=14,489 entities). The data discussed in this publication have been deposited in NCBI's Gene Expression Omnibus and are accessible through NCBI Gene Expression Omnibus (GEO) Series accession number GSE72590. Edgar et al. (2002) Nucleic acids research 30: 207-210. In order to characterize the impact of 2'-FL supplementation while accounting for the effect of ileoecal resection, a t-test was applied between resected and harvested samples within control and experimental animals. Significance was set at a p-value of ≤0.05 and a fold change of 3, which generated 2,576 differentially regulated entities across two comparisons. Gene set unions and intersections of the control and experimental gene sets were identified through Venn diagrams. From the master list, the gene list specific to animals supplemented with 2'-FL were removed in order to identify genes differentially regulated only by ICR (n=546 entities); this gene set characterizes the adaptive response. Further, the 2'-FL response (n=2,030 entities) was identified by removing the adaptive response signature described above from the master list, leaving only genes regulated by 2'-FL supplementation after ICR which were not found in the non-supplemented adaptive response. Heatmaps were generated using hierarchical clustering with the Pearson's Centered distance metric and the average linkage rule; both entities and samples were clustered. All genomic analyses described above were performed in Strand NGS (Strand Life Sciences, CA). Gene list functional enrichment was initially discovered using ToppFun, a member of the ToppGene Suite. Chen et al. (2009) Nucleic acids research 37: […]-311. No statistical correction was selected. Gene lists were further analyzed using ClueGO, a plugin for Cytoscape designed to decipher functionally grouped gene ontology and pathway annotation networks. Bindea et al. (2009) Bioinformatics 25: 1091-1093. At the time of data analysis, the annotation files were updated from sources to Jan. 1, 2015. “GO Term Fusion” was enabled to manage ontologic term redundancy and network specificity was set to medium. Results were restricted to pathways with p≤0.05 using Benjamini-Hochberg correction and Kappa scoring was set to 0.4. Biocyc annotations were assigned a rectangle, gene ontology biologic processes were assigned an ellipse, and […] annotations were assigned a diamond shape. No meaning was assigned to size or color. […]

## C[C@@H]1O[C@@H](O[C@H]2[C@H](O[C@H]3[C@H](O)[C@@H](O)C(O)O[C@@H]3CO)O[C@H](CO)[C@H](O)[C@@H]2O)[C@@H](O)[C@H](O)[C@@H]1O (stereo partly shown) [2′-FL, 2′-fucosyllactose]
Sdhd
  Fold Change (Pre- to Post-op): 3.63
Sec61b
  Fold Change (Pre- to Post-op): 3.69
Sec61g
  Fold Change (Pre- to Post-op): 5.219
Sectm1a
  Fold Change (Pre- to Post-op): 3.311
Sepw1
  Fold Change (Pre- to Post-op): 3.354
Serf2
  Fold Change (Pre- to Post-op): 3.945
Serhl
  Fold Change (Pre- to Post-op): 3.091
Serpina3a
  Fold Change (Pre- to Post-op): 4.605
Sgcg
  Fold Change (Pre- to Post-op): 4.321
Sh3bp4
  Fold Change (Pre- to Post-op): −3.004
Sirt3
  Fold Change (Pre- to Post-op): 3.477
Sla2
  Fold Change (Pre- to Post-op): 3.355
Slc6a3
  Fold Change (Pre- to Post-op): 3.249
Slc6a18
  Fold Change (Pre- to Post-op): 7.382
Slc35d2
  Fold Change (Pre- to Post-op): 3.002
Slc51b
  Fold Change (Pre- to Post-op): 4.575
Slfn2
  Fold Change (Pre- to Post-op): 3.005
Slirp
  Fold Change (Pre- to Post-op): 3.621
Slpi
  Fold Change (Pre- to Post-op): 8.999
Smdt1
  Fold Change (Pre- to Post-op): 3.662
Smim8
  Fold Change (Pre- to Post-op): 3.276
Smim15
  Fold Change (Pre- to Post-op): 3.118
Smim20
  Fold Change (Pre- to Post-op): 3.769
Smlr1
  Fold Change (Pre- to Post-op): 3.977
Snhg9
  Fold Change (Pre- to Post-op): 5.506
Snhg10
  Fold Change (Pre- to Post-op): 3.516
Snrnp25
  Fold Change (Pre- to Post-op): 4.916
Snrpd1
  Fold Change (Pre- to Post-op): 3.053
Snrpd2
  Fold Change (Pre- to Post-op): 3.245
Snrpe
  Fold Change (Pre- to Post-op): 3.535
Snrpg
  Fold Change (Pre- to Post-op): 3.221
Sod1
  Fold Change (Pre- to Post-op): 3.013
Spa17
  Fold Change (Pre- to Post-op): 3.35
Spdya
  Fold Change (Pre- to Post-op): 3.854
Spp1
  Fold Change (Pre- to Post-op): 6.685
Sprr1a
  Fold Change (Pre- to Post-op): 5.778
Spryd7
  Fold Change (Pre- to Post-op): 3.948
Sptssa
  Fold Change (Pre- to Post-op): 4.616
Ssna1
  Fold Change (Pre- to Post-op): 4.034
Ssr4
  Fold Change (Pre- to Post-op): 3.918
Stk16
  Fold Change (Pre- to Post-op): 3.628
Stmnd1
  Fold Change (Pre- to Post-op): 5.003
Stra13
  Fold Change (Pre- to Post-op): 3.6
Styxl1
  Fold Change (Pre- to Post-op): 9.073
Sub1
  Fold Change (Pre- to Post-op): 3.541
Sult1d1
  Fold Change (Pre- to Post-op): 3.024
Sumo1
  Fold Change (Pre- to Post-op): 3.071
Sun3
  Fold Change (Pre- to Post-op): 3.257
Syce3
  Fold Change (Pre- to Post-op): 6.617
Tatdn3
  Fold Change (Pre- to Post-op): 3.064
Tbca
  Fold Change (Pre- to Post-op): 3.568
Tceb1
  Fold Change (Pre- to Post-op): 3.464
Tcrg-V7
  Fold Change (Pre- to Post-op): 3.042
Tcta
  Fold Change (Pre- to Post-op): 3.223
Tead4
  Fold Change (Pre- to Post-op): −3.006
Tefm
  Fold Change (Pre- to Post-op): 5.047
Tex14
  Fold Change (Pre- to Post-op): 9.152
Tgds
  Fold Change (Pre- to Post-op): 3.307
Thoc7
  Fold Change (Pre- to Post-op): 3.381
Timm8b
  Fold Change (Pre- to Post-op): 5.609
Timm10
  Fold Change (Pre- to Post-op): 3.177
Timm10b
  Fold Change (Pre- to Post-op): 3.175
Timp1
  Fold Change (Pre- to Post-op): 6.763
Tm2d1
  Fold Change (Pre- to Post-op): 3.704
Tma7
  Fold Change (Pre- to Post-op): 3.664
Tmem14c
  Fold Change (Pre- to Post-op): 3.542
Tmem17
  Fold Change (Pre- to Post-op): 4.923
Tmem29
  Fold Change (Pre- to Post-op): 3.596
Tmem120a
  Fold Change (Pre- to Post-op): 3.535
Tmem126a
  Fold Change (Pre- to Post-op): 3.547
Tmem141
  Fold Change (Pre- to Post-op): 3.785
Tmem147
  Fold Change (Pre- to Post-op): 3.294
Tmem160
  Fold Change (Pre- to Post-op): 3.219
Tmem167
  Fold Change (Pre- to Post-op): 3.465
Tmem202
  Fold Change (Pre- to Post-op): 18.02
Tmem205
  Fold Change (Pre- to Post-op): 3.889
Tmem208
  Fold Change (Pre- to Post-op): 4.011
Tmem242
  Fold Change (Pre- to Post-op): 3.513
Tmem243
  Fold Change (Pre- to Post-op): 3.368
Tmem256
  Fold Change (Pre- to Post-op): 5.43
Tmem261
  Fold Change (Pre- to Post-op): 3.229
Tmigd1
  Fold Change (Pre- to Post-op): 5.849
Tmsb10
  Fold Change (Pre- to Post-op): 3.554
Tnfsf13
  Fold Change (Pre- to Post-op): 5.041
Tnni1
  Fold Change (Pre- to Post-op): 7.38
Tnnt1
  Fold Change (Pre- to Post-op): 3.164
Tomm5
  Fold Change (Pre- to Post-op): 5.495
Tomm7
  Fold Change (Pre- to Post-op): 3.32
Tomm20
  Fold Change (Pre- to Post-op): 3.751
Tomm40l
  Fold Change (Pre- to Post-op): 3.767
Tpsb2
  Fold Change (Pre- to Post-op): 11.69
Trappc2l
  Fold Change (Pre- to Post-op): 3.461
Triqk
  Fold Change (Pre- to Post-op): 3.242
Trub2
  Fold Change (Pre- to Post-op): 3.313
Tsc2
  Fold Change (Pre- to Post-op): −3.008
Tspo2
  Fold Change (Pre- to Post-op): 3.759
Tstd1
  Fold Change (Pre- to Post-op): 5.012
Tubal3
  Fold Change (Pre- to Post-op): 3.046
Tusc2
  Fold Change (Pre- to Post-op): 4.502
Tvp23a
  Fold Change (Pre- to Post-op): 3.077
Ubd
  Fold Change (Pre- to Post-op): 8.971
Ube2t
  Fold Change (Pre- to Post-op): 3.289
Ubxn6
  Fold Change (Pre- to Post-op): 3.221
Ugt2b35
  Fold Change (Pre- to Post-op): 3.331
Upb1
  Fold Change (Pre- to Post-op): 7.463
Uqcc2
  Fold Change (Pre- to Post-op): 5.364
Uqcr10
  Fold Change (Pre- to Post-op): 4.682
Uqcr11
  Fold Change (Pre- to Post-op): 4.1
Uqcrh
  Fold Change (Pre- to Post-op): 4.939
Uqcrq
  Fold Change (Pre- to Post-op): 5.268
Urm1
  Fold Change (Pre- to Post-op): 3.576
Usmg5
  Fold Change (Pre- to Post-op): 6.564
Uxt
  Fold Change (Pre- to Post-op): 3.219
Vamp8
  Fold Change (Pre- to Post-op): 3.353
Vars
  Fold Change (Pre- to Post-op): −3.002
Vcpkmt
  Fold Change (Pre- to Post-op): 3.052
Vmp1
  Fold Change (Pre- to Post-op): 3.307
Vps29
  Fold Change (Pre- to Post-op): 3.971
Vti1b
  Fold Change (Pre- to Post-op): 3.377
Vwa7
  Fold Change (Pre- to Post-op): 5.626
Wdpcp
  Fold Change (Pre- to Post-op): 3.182
